The values below come from article PMC10457299.

In the data set the target is T1, BnA09MYB47a ZY821 allele (GST-MYB47) (Brassica napus (black-seeded ZY821)) (UniProt A0ABQ7YCS3).
T1 sequence (looked up, limits assumed): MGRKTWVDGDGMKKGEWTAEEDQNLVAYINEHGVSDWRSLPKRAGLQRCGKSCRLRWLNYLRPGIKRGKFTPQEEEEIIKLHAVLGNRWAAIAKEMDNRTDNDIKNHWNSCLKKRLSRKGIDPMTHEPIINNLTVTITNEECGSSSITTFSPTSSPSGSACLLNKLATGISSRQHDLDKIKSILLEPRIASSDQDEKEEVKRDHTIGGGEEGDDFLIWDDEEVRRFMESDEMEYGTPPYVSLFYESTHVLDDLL
The experiment in a line: EMSA. The settings on record: EMSA: LightShift Chemiluminescent kit, room temperature 20 min, native 6% acrylamide gel; salt and pH not stated; recombinant protein; protein details: GST (pGEX4T-1).

The exact form of at least one protein or probe is not confirmed. Protein sequences can lack the tags named with them.

“CTTCTTCACACATTAACTAACTACCGGTAGTTATGCACTT (double strand) [BnTT18 promoter probe 1]”: the binding result is listed as “binds”.
